In the supplement of paper PMC12067093, “Discovery and optimisation of a covalent ligand for TRIM25 and its application to targeted protein ubiquitination” (Chemical Science, 2025):
The other results are listed elsewhere or left out.

Compound: CC1Cc2ccccc2N1C(=O)C1CCCN(C1)C(=O)CCl (mixture of isomers) [TRIM25 ligand 11 (diastereomer mixture)]
Experiment: probe-labelled cysteine peptide fold change vs DMSO (competition) (log2 fold change); higher = less target engagement (more negative = stronger competition)
Conditions: THP-1, incubation time: 4 h
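Note: competitive chemoproteomic profiling in live THP-1 cells with an iodoacetamide desthiobiotin (IA-DTB) probe, comparing probe-labelled peptide intensities in compound-treated cells against DMSO-treated controls.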

## GNB4_Q9HAV0_294_LLLAGYDDFNCNVWDTLK (UniProt Q9HAV0)
10 µM
  probe-labelled cysteine peptide fold change: 0.139
50 µM
  probe-labelled cysteine peptide fold change: 0.0914

## GMEB1_Q9Y692_274_GIADVGLMEEVVCNIQK (UniProt Q9Y692)
10 µM
  probe-labelled cysteine peptide fold change: -0.112
50 µM
  probe-labelled cysteine peptide fold change: 0.0135

## GPC4_O75487_341_VFQGCGPPK (UniProt O75487)
10 µM
  probe-labelled cysteine peptide fold change: 0.047
50 µM
  probe-labelled cysteine peptide fold change: 0.208

## GLIPR1_P48060_192_GATCSACPNNDK (UniProt P48060)
10 µM
  probe-labelled cysteine peptide fold change: 0.0428
50 µM
  probe-labelled cysteine peptide fold change: 0.0349

## GLRX5_Q86SX6_67_GTPEQPQCGFSNAVVQILR (UniProt Q86SX6)
10 µM
  probe-labelled cysteine peptide fold change: -0.319

## GNPNAT1_Q96EK6_128_GRVEDVVVSDECR (UniProt Q96EK6)
10 µM
  probe-labelled cysteine peptide fold change: 0.0187
50 µM
  probe-labelled cysteine peptide fold change: 0.125

## GLG1_Q92896_118_LAEEESCREDVTR (UniProt Q92896)
10 µM
  probe-labelled cysteine peptide fold change: -0.0823
50 µM
  probe-labelled cysteine peptide fold change: -0.0605

## GLG1_Q92896_984_LSSDCEDQIR (UniProt Q92896)
10 µM
  probe-labelled cysteine peptide fold change: 0.0171
50 µM
  probe-labelled cysteine peptide fold change: -0.068

## GLA_P06280_56_FMCNLDCQEEPDSCISEK (UniProt P06280)
10 µM
  probe-labelled cysteine peptide fold change: 0.0477
50 µM
  probe-labelled cysteine peptide fold change: -0.166

## GPATCH11_Q8N954_95_NALGCENK (UniProt Q8N954)
10 µM
  probe-labelled cysteine peptide fold change: -0.0699
50 µM
  probe-labelled cysteine peptide fold change: -0.121

## GNAI2_P04899_112_QLFALSCTAEEQGVLPDDLSGVIRR (UniProt P04899)
10 µM
  probe-labelled cysteine peptide fold change: -0.0984
50 µM
  probe-labelled cysteine peptide fold change: -0.0698

## GNPNAT1_Q96EK6_45_EVDWSQNTATFSPAISPTHPGEGLVLRPLCTADLNR (UniProt Q96EK6)
10 µM
  probe-labelled cysteine peptide fold change: -0.0144
50 µM
  probe-labelled cysteine peptide fold change: 0.0117

## GLYR1_Q49A26_486_CQNILQGNFKPDFYLK (UniProt Q49A26)
10 µM
  probe-labelled cysteine peptide fold change: 0.00574
50 µM
  probe-labelled cysteine peptide fold change: -0.0249

## GPATCH1_Q9BRR8_534_CLDPSMTEWER (UniProt Q9BRR8)
10 µM
  probe-labelled cysteine peptide fold change: -0.0382
50 µM
  probe-labelled cysteine peptide fold change: 0.186

## GOLGA3_Q08378_477_QSCWDLER (UniProt Q08378)
10 µM
  probe-labelled cysteine peptide fold change: 0.119
50 µM
  probe-labelled cysteine peptide fold change: 0.318

## GPD1L_Q8N335_202_ITVVDDADTVELCGALK (UniProt Q8N335)
10 µM
  probe-labelled cysteine peptide fold change: 0.0754
50 µM
  probe-labelled cysteine peptide fold change: -0.117

## GLA_P06280_94_DAGYEYLCIDDCWMAPQR (UniProt P06280)
10 µM
  probe-labelled cysteine peptide fold change: -0.489
50 µM
  probe-labelled cysteine peptide fold change: -0.044

## GPD2_P43304_285_CVINATGPFTDSVR (UniProt P43304)
10 µM
  probe-labelled cysteine peptide fold change: 0.0856
50 µM
  probe-labelled cysteine peptide fold change: 0.134

## GIT2_Q14161_149_TGNLETCLR (UniProt Q14161)
10 µM
  probe-labelled cysteine peptide fold change: -0.0434
50 µM
  probe-labelled cysteine peptide fold change: -0.0512

## GLG1_Q92896_118_LAEEESCR (UniProt Q92896)
10 µM
  probe-labelled cysteine peptide fold change: 0.114
50 µM
  probe-labelled cysteine peptide fold change: 0.00992

## GLMP_Q8WWB7_300_ESALPCQASPLHPALAYSLPQSPIVR (UniProt Q8WWB7)
10 µM
  probe-labelled cysteine peptide fold change: 0.223
50 µM
  probe-labelled cysteine peptide fold change: 0.011

## GMEB2_Q9UKD1_96_MAEEGENLEAEIVYPITCGDSR (UniProt Q9UKD1)
10 µM
  probe-labelled cysteine peptide fold change: -0.382
50 µM
  probe-labelled cysteine peptide fold change: 0.185

## GNL2_Q13823_336_VCNVAPIAGETK (UniProt Q13823)
10 µM
  probe-labelled cysteine peptide fold change: 0.0582
50 µM
  probe-labelled cysteine peptide fold change: 0.00821

## GPD2_P43304_385_NYLSCDVEVR (UniProt P43304)
10 µM
  probe-labelled cysteine peptide fold change: 0.0483
50 µM
  probe-labelled cysteine peptide fold change: 0.0279

## GMIP_Q9P107_571_CTAEIEHR (UniProt Q9P107)
10 µM
  probe-labelled cysteine peptide fold change: 0.204
50 µM
  probe-labelled cysteine peptide fold change: 0.281

## GOLGA3_Q08378_769_EDTICLLQNEK (UniProt Q08378)
10 µM
  probe-labelled cysteine peptide fold change: -0.0838
50 µM
  probe-labelled cysteine peptide fold change: -0.0912

## GNAI1_P63096_139_DSGVQACFNR (UniProt P63096)
10 µM
  probe-labelled cysteine peptide fold change: -0.0266
50 µM
  probe-labelled cysteine peptide fold change: 0.0893

## GPC4_O75487_341_VFQGCGPPKPLPAGR (UniProt O75487)
10 µM
  probe-labelled cysteine peptide fold change: -0.0123
50 µM
  probe-labelled cysteine peptide fold change: -0.141

## GLS_O94925_518_GIHFCHDLVSLCNFHNYDNLR (UniProt O94925)
10 µM
  probe-labelled cysteine peptide fold change: -0.0754
50 µM
  probe-labelled cysteine peptide fold change: -0.0766

## GLUL_P15104_99_LVLCEVFK (UniProt P15104)
10 µM
  probe-labelled cysteine peptide fold change: -0.0968
50 µM
  probe-labelled cysteine peptide fold change: 0.128

## GNPNAT1_Q96EK6_128_VEDVVVSDECR (UniProt Q96EK6)
10 µM
  probe-labelled cysteine peptide fold change: 0.0198
50 µM
  probe-labelled cysteine peptide fold change: 0.123

## GLCCI1_Q86VQ1_151_SPGSPVCR (UniProt Q86VQ1)
10 µM
  probe-labelled cysteine peptide fold change: 0.0233
50 µM
  probe-labelled cysteine peptide fold change: 0.0417

## GLUD1_P00367_376_PYEGSILEADCDILIPAASEK (UniProt P00367)
10 µM
  probe-labelled cysteine peptide fold change: -0.0111
50 µM
  probe-labelled cysteine peptide fold change: -0.112

## GIT2_Q14161_35_GTFLCDECCSVHR (UniProt Q14161)
10 µM
  probe-labelled cysteine peptide fold change: 0.00118
50 µM
  probe-labelled cysteine peptide fold change: 0.0943

## GOPC_Q9HD26_327_CGGLHVGDAILAVNGVNLR (UniProt Q9HD26)
10 µM
  probe-labelled cysteine peptide fold change: 0.0726
50 µM
  probe-labelled cysteine peptide fold change: 0.301

## GON4L_Q3T8J9_2140_AAEATVCANNSK (UniProt Q3T8J9)
10 µM
  probe-labelled cysteine peptide fold change: -0.06
50 µM
  probe-labelled cysteine peptide fold change: -0.454

## GNPAT_O15228_668_LEEMLGCK (UniProt O15228)
10 µM
  probe-labelled cysteine peptide fold change: 0.12
50 µM
  probe-labelled cysteine peptide fold change: 0.037

## GLO1_Q04760_139_GFGHIGIAVPDVYSACKR (UniProt Q04760)
10 µM
  probe-labelled cysteine peptide fold change: -0.51
50 µM
  probe-labelled cysteine peptide fold change: -0.326

## GLRX_P35754_79_DCIGGCSDLVSLQQSGELLTR (UniProt P35754)
10 µM
  probe-labelled cysteine peptide fold change: -0.0051
50 µM
  probe-labelled cysteine peptide fold change: -0.14

## GNAI3_P08754_139_DGGVQACFSR (UniProt P08754)
10 µM
  probe-labelled cysteine peptide fold change: 0.0309
50 µM
  probe-labelled cysteine peptide fold change: -0.0537

## GPD1L_Q8N335_216_NIVAVGAGFCDGLR (UniProt Q8N335)
10 µM
  probe-labelled cysteine peptide fold change: 0.138
50 µM
  probe-labelled cysteine peptide fold change: 0.0362

## GLG1_Q92896_1071_ADIFVDPVLHTACALDIK (UniProt Q92896)
10 µM
  probe-labelled cysteine peptide fold change: -0.0756
50 µM
  probe-labelled cysteine peptide fold change: -0.0987

## GPI_P06744_404_MIPCDFLIPVQTQHPIRK (UniProt P06744)
10 µM
  probe-labelled cysteine peptide fold change: -0.0185
50 µM
  probe-labelled cysteine peptide fold change: -0.0737
